This is one part of the list. Hit calls seldom repeat between salt and free forms of one compound.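 In K562 cells expressing nanoluciferase-fused kinases, luminescence was recorded at 4 h intervals between 2 and 18 h, normalized as percent of control with DMSO at 100% and a positive control at 0%. A significant (2 sigma) signal drop marks a time point as decreased. The authors' rule for a hit is not shown and takes in more than the number of time points.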
Key:
Assay in all cases: kinase-Nluc reporter destabilization hit call (1 = scored as downregulated) (binary); higher = compound decreases kinase abundance
Conditions in all cases: K562; 2-18 h
IRAK3 = IRAK3 (UniProt Q9Y616)
JAK1 = JAK1 (UniProt P23458)
LCK = LCK (UniProt P06239)
LIMK1 = LIMK1 (UniProt P53667)
LIMK2 = LIMK2 (UniProt P53671)
LMTK2 = LMTK2 (UniProt Q8IWU2)
LYN = LYN (UniProt P07948)
MAP2K1 = MAP2K1 (UniProt Q02750)
MAP2K2 = MAP2K2 (UniProt P36507)
MAP4K2 = MAP4K2 (UniProt Q12851)
MAPK1 = MAPK1 (UniProt P28482)
MAPK4 = MAPK4 (UniProt P31152)
MAPKAPK2 = MAPKAPK2 (UniProt P49137)
MKNK1 = MKNK1 (UniProt Q9BUB5)
NTRK2 = NTRK2 (UniProt Q16620)
NTRK3 = NTRK3 (UniProt Q16288)
PAK4 = PAK4 (UniProt O96013)
PBK = PBK (UniProt Q96KB5)
PDGFRB = PDGFRB (UniProt P09619)
PDK1 = PDK1 (UniProt Q15118)

By UniProt entry, the sequences of proteins in these tests, tags left out. Where a name states a change or a piece, a line headed by the entry shows the natural chain unless it says otherwise.
UniProt Q9Y616: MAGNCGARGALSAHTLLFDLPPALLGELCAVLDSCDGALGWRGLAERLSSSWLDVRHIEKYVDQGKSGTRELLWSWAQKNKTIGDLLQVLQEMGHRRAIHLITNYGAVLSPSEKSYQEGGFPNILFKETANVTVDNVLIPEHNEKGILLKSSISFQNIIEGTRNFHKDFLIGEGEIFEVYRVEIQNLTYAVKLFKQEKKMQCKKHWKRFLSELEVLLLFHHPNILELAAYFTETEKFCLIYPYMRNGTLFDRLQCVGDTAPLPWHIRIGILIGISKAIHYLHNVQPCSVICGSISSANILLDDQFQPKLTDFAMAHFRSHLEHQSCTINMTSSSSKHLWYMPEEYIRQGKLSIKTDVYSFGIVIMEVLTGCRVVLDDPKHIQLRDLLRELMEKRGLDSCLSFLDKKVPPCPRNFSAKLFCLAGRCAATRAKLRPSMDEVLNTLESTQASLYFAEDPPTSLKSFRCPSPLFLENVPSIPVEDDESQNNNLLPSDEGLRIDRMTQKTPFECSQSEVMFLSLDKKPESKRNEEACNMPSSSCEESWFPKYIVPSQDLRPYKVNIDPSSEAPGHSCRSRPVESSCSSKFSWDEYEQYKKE
UniProt P23458: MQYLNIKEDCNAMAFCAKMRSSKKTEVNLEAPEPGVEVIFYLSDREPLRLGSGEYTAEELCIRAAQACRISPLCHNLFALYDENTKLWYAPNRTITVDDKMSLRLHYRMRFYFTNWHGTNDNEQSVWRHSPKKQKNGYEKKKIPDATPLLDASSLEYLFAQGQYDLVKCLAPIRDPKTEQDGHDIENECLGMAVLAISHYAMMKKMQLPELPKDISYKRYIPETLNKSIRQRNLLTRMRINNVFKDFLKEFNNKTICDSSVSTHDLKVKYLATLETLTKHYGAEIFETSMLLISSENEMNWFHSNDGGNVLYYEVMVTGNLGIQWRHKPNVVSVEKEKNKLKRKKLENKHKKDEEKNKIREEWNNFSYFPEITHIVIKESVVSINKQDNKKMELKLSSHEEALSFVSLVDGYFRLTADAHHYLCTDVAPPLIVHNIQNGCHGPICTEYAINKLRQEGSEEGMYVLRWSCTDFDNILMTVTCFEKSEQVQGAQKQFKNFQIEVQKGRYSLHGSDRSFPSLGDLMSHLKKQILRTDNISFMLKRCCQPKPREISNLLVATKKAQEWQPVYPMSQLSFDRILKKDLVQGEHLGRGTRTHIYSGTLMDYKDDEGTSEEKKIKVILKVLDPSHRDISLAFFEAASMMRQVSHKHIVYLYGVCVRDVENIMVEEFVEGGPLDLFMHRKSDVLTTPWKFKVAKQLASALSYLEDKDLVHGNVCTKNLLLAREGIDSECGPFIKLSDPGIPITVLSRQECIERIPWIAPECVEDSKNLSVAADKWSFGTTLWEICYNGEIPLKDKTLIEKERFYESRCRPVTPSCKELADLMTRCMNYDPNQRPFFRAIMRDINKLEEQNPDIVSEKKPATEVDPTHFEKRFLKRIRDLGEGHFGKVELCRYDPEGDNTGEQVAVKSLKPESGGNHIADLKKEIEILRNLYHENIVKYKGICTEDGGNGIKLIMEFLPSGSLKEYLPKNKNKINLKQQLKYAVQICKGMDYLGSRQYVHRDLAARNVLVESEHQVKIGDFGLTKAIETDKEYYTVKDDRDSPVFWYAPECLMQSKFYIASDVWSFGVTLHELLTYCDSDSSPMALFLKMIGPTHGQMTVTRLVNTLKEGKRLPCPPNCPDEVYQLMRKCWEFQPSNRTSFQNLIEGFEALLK
UniProt P06239: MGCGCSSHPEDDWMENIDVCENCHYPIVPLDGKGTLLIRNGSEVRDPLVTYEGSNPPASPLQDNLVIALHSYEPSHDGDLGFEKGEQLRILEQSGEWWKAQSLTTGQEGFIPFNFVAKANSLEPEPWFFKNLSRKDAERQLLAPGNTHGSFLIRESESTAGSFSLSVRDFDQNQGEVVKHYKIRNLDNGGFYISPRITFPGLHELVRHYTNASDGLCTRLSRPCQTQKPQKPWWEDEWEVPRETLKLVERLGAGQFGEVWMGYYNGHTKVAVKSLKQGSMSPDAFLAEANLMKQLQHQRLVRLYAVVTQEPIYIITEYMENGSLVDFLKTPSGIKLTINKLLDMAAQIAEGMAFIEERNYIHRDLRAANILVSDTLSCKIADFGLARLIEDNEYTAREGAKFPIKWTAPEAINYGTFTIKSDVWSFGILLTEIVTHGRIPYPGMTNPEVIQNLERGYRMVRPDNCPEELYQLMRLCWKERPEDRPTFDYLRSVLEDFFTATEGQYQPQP
UniProt P53671: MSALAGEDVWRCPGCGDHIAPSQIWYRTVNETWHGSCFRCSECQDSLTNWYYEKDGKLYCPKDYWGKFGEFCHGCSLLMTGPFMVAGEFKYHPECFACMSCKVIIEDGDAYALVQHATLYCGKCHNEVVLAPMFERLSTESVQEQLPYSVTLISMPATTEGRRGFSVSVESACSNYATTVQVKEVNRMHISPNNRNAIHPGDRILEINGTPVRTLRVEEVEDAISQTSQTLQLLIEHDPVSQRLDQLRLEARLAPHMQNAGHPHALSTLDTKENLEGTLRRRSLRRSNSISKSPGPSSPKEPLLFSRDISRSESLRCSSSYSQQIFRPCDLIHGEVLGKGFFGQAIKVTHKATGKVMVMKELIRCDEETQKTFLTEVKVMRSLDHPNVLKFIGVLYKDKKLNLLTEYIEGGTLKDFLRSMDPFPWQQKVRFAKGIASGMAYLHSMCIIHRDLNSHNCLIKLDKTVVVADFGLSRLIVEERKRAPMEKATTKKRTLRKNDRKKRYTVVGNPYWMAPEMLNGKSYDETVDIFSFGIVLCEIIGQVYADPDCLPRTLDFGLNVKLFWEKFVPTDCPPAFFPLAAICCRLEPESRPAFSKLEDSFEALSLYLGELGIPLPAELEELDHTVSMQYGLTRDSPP
UniProt P49137, whole entry, looked up: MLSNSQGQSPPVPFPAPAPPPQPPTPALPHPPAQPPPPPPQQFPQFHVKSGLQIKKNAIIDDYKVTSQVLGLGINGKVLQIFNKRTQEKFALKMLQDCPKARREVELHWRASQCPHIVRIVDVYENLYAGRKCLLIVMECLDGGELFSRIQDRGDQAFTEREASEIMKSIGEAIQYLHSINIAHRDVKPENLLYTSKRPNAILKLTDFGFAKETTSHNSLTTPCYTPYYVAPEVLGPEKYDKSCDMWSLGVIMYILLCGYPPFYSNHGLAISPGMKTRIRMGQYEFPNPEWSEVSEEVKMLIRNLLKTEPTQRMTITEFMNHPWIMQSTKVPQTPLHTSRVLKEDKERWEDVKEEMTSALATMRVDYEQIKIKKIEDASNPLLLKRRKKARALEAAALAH
UniProt Q9BUB5: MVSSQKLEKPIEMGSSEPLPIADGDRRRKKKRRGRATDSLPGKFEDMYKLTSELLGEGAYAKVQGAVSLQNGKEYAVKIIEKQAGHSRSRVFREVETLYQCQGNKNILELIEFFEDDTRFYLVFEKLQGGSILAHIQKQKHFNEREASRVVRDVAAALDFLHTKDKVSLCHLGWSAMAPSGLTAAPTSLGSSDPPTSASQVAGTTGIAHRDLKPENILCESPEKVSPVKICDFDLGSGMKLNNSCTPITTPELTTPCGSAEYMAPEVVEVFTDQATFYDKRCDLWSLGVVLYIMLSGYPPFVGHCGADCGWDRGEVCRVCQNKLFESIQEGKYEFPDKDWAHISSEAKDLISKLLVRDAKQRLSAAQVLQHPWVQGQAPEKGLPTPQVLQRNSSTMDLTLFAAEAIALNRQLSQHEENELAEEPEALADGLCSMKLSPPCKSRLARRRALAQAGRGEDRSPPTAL
UniProt Q16620, whole entry, looked up: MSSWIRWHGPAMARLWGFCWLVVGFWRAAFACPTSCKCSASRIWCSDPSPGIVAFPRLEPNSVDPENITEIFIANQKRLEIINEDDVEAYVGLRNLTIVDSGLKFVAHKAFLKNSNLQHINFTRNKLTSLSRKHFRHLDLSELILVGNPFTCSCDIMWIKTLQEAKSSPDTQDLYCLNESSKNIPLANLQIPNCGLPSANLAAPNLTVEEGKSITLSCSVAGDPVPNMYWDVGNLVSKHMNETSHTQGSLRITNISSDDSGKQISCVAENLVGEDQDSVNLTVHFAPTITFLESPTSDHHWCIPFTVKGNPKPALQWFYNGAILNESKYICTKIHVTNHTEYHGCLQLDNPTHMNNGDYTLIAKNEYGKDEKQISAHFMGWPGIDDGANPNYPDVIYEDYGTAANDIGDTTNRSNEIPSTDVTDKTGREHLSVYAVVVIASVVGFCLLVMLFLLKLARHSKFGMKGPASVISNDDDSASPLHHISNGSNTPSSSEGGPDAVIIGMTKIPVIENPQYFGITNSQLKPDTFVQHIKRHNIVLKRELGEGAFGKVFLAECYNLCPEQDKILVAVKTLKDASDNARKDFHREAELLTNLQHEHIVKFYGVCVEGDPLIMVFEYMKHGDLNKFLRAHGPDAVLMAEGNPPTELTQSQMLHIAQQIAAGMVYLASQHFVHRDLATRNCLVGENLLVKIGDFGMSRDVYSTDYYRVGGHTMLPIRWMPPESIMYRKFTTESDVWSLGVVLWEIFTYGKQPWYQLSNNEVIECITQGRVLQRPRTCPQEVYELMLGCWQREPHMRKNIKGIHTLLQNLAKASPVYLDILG
UniProt Q16288, whole entry, looked up: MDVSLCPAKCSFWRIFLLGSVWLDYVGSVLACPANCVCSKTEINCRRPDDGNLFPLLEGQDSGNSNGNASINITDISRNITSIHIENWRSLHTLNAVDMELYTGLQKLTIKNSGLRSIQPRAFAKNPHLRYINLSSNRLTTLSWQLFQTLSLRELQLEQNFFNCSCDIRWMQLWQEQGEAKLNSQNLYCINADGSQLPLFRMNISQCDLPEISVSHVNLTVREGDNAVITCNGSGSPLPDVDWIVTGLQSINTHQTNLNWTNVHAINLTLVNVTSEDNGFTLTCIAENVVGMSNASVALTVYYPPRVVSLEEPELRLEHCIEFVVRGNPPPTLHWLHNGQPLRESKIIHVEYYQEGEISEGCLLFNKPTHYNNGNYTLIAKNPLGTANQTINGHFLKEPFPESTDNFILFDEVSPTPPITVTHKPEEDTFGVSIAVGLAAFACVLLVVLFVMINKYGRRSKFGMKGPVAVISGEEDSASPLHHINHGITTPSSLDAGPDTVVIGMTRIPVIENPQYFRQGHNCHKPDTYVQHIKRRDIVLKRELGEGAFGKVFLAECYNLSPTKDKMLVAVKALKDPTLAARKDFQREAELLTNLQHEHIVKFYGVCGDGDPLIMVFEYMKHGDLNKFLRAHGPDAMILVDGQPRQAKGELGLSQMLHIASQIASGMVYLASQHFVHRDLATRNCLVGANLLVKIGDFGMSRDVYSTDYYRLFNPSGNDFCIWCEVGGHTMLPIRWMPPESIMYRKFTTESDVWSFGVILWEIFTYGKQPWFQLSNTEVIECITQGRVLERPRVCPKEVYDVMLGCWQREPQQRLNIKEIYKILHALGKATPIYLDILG
UniProt O96013: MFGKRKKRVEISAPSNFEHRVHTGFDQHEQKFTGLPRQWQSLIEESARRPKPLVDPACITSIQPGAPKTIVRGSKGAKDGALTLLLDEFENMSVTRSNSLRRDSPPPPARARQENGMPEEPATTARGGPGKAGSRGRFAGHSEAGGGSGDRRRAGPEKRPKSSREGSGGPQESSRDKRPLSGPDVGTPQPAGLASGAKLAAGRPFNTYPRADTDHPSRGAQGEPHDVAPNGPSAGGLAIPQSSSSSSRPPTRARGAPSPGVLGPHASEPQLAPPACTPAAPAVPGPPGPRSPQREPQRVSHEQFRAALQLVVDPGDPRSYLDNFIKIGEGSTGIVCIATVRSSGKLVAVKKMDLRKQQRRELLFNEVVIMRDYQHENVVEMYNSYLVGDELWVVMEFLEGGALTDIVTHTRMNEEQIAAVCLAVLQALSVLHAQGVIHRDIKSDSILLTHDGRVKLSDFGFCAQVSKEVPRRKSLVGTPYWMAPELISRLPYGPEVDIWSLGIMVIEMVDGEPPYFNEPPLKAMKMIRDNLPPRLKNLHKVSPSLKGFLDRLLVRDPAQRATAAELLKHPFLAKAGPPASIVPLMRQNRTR
UniProt Q96KB5: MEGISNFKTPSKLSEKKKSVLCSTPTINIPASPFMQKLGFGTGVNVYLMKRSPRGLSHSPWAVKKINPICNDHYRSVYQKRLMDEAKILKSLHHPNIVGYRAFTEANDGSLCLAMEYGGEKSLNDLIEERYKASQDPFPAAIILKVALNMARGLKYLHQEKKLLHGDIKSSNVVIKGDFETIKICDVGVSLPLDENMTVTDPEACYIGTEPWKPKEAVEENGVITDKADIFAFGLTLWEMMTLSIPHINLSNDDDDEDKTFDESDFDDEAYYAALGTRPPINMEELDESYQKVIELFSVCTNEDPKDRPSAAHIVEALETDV

Measured: kinase-Nluc reporter destabilization hit call

O=C(Nc1cccc(Nc2ncc(Br)c(NCCc3cnc[nH]3)n2)c1)N1CCCC1 (10 µM)
inactive: IRAK3 = 0 | JAK1 = 0 | LCK 0 | LIMK1 = 0 | LIMK2 = 0 | LMTK2 = 0 | LYN 0 | MAP2K1 = 0 | MAP2K2 = 0 | MAP4K2 = 0 | MAPK1 = 0 | MAPK4 = 0 | MAPKAPK2 = 0 | MKNK1 = 0 | NTRK2 = 0 | NTRK3 = 0 | PAK4 = 0 | PBK 0 | PDGFRB 0 | PDK1 = 0

C=CC(=O)Nc1cc(Nc2nccc(-n3cc(CN(C)C)c(-c4ccccc4)n3)n2)c(OC)cc1N1CCOCC1 [Lazertinib] (10 µM)
inactive: IRAK3 = 0 | JAK1 = 0 | LCK 0 | LIMK1 = 0 | LIMK2 = 0 | LMTK2 = 0 | LYN 0 | MAP2K1 = 0 | MAP2K2 = 0 | MAP4K2 = 0 | MAPK1 = 0 | MAPK4 = 0 | MAPKAPK2 = 0 | MKNK1 = 0 | NTRK2 = 0 | NTRK3 = 0 | PAK4 = 0 | PBK 0 | PDGFRB 0 | PDK1 = 0

CCc1cccc(CC)c1NC(=O)N1Cc2[nH]nc(NC(=O)c3ccc(N4CCN(C)CC4)cc3)c2C1 (2.5 µM)
inactive: IRAK3 = 0 | JAK1 = 0 | LCK 0 | LIMK1 = 0 | LIMK2 = 0 | LMTK2 = 0 | LYN 0 | MAP2K1 = 0 | MAP2K2 = 0 | MAP4K2 = 0 | MAPK1 = 0 | MAPK4 = 0 | MAPKAPK2 = 0 | MKNK1 = 0 | NTRK2 = 0 | NTRK3 = 0 | PAK4 = 0 | PBK 0 | PDGFRB 0 | PDK1 = 0

O=C(NC1CCOCC1)c1ccc(-c2cc(-c3c[nH]nc3-c3ccccn3)ccn2)cc1 (10 µM)
inactive: IRAK3 = 0 | JAK1 = 0 | LCK 0 | LIMK1 = 0 | LIMK2 = 0 | LMTK2 = 0 | LYN 0 | MAP2K1 = 0 | MAP2K2 = 0 | MAP4K2 = 0 | MAPK1 = 0 | MAPK4 = 0 | MAPKAPK2 = 0 | MKNK1 = 0 | NTRK2 = 0 | NTRK3 = 0 | PAK4 = 0 | PBK 0 | PDGFRB 0 | PDK1 = 0

Nc1ncnc2c1c(COc1cccc(Cl)c1)nn2C1CCOCC1 (10 µM)
inactive: IRAK3 = 0 | JAK1 = 0 | LCK 0 | LIMK1 = 0 | LIMK2 = 0 | LMTK2 = 0 | LYN 0 | MAP2K1 = 0 | MAP2K2 = 0 | MAP4K2 = 0 | MAPK1 = 0 | MAPK4 = 0 | MAPKAPK2 = 0 | MKNK1 = 0 | NTRK2 = 0 | NTRK3 = 0 | PAK4 = 0 | PBK 0 | PDGFRB 0 | PDK1 = 0

CC(C)C[C@@H](C(=O)Nc1ccn(C[C@@H](O)CO)n1)N1CC(Oc2ccccc2Cl)=CC1=O [Dorzagliatin] (10 µM)
inactive: IRAK3 = 0 | JAK1 = 0 | LCK 0 | LIMK1 = 0 | LIMK2 = 0 | LMTK2 = 0 | LYN 0 | MAP2K1 = 0 | MAP2K2 = 0 | MAP4K2 = 0 | MAPK1 = 0 | MAPK4 = 0 | MAPKAPK2 = 0 | MKNK1 = 0 | NTRK2 = 0 | NTRK3 = 0 | PAK4 = 0 | PBK 0 | PDGFRB 0 | PDK1 = 0

Cc1cc(Nc2nc(CC3(C(=O)O)CCN(C(=O)c4cccc(Cl)c4Cl)CC3)ccc2F)n[nH]1 (10 µM)
inactive: IRAK3 = 0 | JAK1 = 0 | LCK 0 | LIMK1 = 0 | LIMK2 = 0 | LMTK2 = 0 | LYN 0 | MAP2K1 = 0 | MAP2K2 = 0 | MAP4K2 = 0 | MAPK1 = 0 | MAPK4 = 0 | MAPKAPK2 = 0 | MKNK1 = 0 | NTRK2 = 0 | NTRK3 = 0 | PAK4 = 0 | PBK 0 | PDGFRB 0 | PDK1 = 0

c1ccc(-c2nc3c(c(-n4ccc5cnccc54)n2)CCC3)nc1 (10 µM)
inactive: IRAK3 = 0 | JAK1 = 0 | LCK 0 | LIMK1 = 0 | LIMK2 = 0 | LMTK2 = 0 | LYN 0 | MAP2K1 = 0 | MAP2K2 = 0 | MAP4K2 = 0 | MAPK1 = 0 | MAPK4 = 0 | MAPKAPK2 = 0 | MKNK1 = 0 | NTRK2 = 0 | NTRK3 = 0 | PAK4 = 0 | PBK 0 | PDGFRB 0 | PDK1 = 0

CNc1nc(Nc2ccc(C(=O)N3CCOCC3)cc2OC)ncc1Cl (2.5 µM)
inactive: IRAK3 = 0 | JAK1 = 0 | LCK 0 | LIMK1 = 0 | LIMK2 = 0 | LMTK2 = 0 | LYN 0 | MAP2K1 = 0 | MAP2K2 = 0 | MAP4K2 = 0 | MAPK1 = 0 | MAPK4 = 0 | MAPKAPK2 = 0 | MKNK1 = 0 | NTRK2 = 0 | NTRK3 = 0 | PAK4 = 0 | PBK 0 | PDGFRB 0 | PDK1 = 0

In the list so far, five have a carbonyl joined to an NH by a bond outside any ring.
O=C(Nc1cccc(Nc2ncc(Br)c(NCCc3cnc[nH]3)n2)c1)N1CCCC1 (10 µM)
inactive: IRAK3 = 0 | JAK1 = 0 | LCK 0 | LIMK1 = 0 | LIMK2 = 0 | LMTK2 = 0 | LYN 0 | MAP2K1 = 0 | MAP2K2 = 0 | MAP4K2 = 0 | MAPK1 = 0 | MAPK4 = 0 | MAPKAPK2 = 0 | MKNK1 = 0 | NTRK2 = 0 | NTRK3 = 0 | PAK4 = 0 | PBK 0 | PDGFRB 0 | PDK1 = 0

C=CC(=O)Nc1cc(Nc2nccc(-n3cc(CN(C)C)c(-c4ccccc4)n3)n2)c(OC)cc1N1CCOCC1 [Lazertinib] (10 µM)
inactive: IRAK3 = 0 | JAK1 = 0 | LCK 0 | LIMK1 = 0 | LIMK2 = 0 | LMTK2 = 0 | LYN 0 | MAP2K1 = 0 | MAP2K2 = 0 | MAP4K2 = 0 | MAPK1 = 0 | MAPK4 = 0 | MAPKAPK2 = 0 | MKNK1 = 0 | NTRK2 = 0 | NTRK3 = 0 | PAK4 = 0 | PBK 0 | PDGFRB 0 | PDK1 = 0

CCc1cccc(CC)c1NC(=O)N1Cc2[nH]nc(NC(=O)c3ccc(N4CCN(C)CC4)cc3)c2C1 (2.5 µM)
inactive: IRAK3 = 0 | JAK1 = 0 | LCK 0 | LIMK1 = 0 | LIMK2 = 0 | LMTK2 = 0 | LYN 0 | MAP2K1 = 0 | MAP2K2 = 0 | MAP4K2 = 0 | MAPK1 = 0 | MAPK4 = 0 | MAPKAPK2 = 0 | MKNK1 = 0 | NTRK2 = 0 | NTRK3 = 0 | PAK4 = 0 | PBK 0 | PDGFRB 0 | PDK1 = 0

O=C(NC1CCOCC1)c1ccc(-c2cc(-c3c[nH]nc3-c3ccccn3)ccn2)cc1 (10 µM)
inactive: IRAK3 = 0 | JAK1 = 0 | LCK 0 | LIMK1 = 0 | LIMK2 = 0 | LMTK2 = 0 | LYN 0 | MAP2K1 = 0 | MAP2K2 = 0 | MAP4K2 = 0 | MAPK1 = 0 | MAPK4 = 0 | MAPKAPK2 = 0 | MKNK1 = 0 | NTRK2 = 0 | NTRK3 = 0 | PAK4 = 0 | PBK 0 | PDGFRB 0 | PDK1 = 0

CC(C)C[C@@H](C(=O)Nc1ccn(C[C@@H](O)CO)n1)N1CC(Oc2ccccc2Cl)=CC1=O [Dorzagliatin] (10 µM)
inactive: IRAK3 = 0 | JAK1 = 0 | LCK 0 | LIMK1 = 0 | LIMK2 = 0 | LMTK2 = 0 | LYN 0 | MAP2K1 = 0 | MAP2K2 = 0 | MAP4K2 = 0 | MAPK1 = 0 | MAPK4 = 0 | MAPKAPK2 = 0 | MKNK1 = 0 | NTRK2 = 0 | NTRK3 = 0 | PAK4 = 0 | PBK 0 | PDGFRB 0 | PDK1 = 0

Further results

C[C@@H]1COCCN1c1nc(-c2cnc(N)cc2C(F)F)nc(N2[C@H](C)COC[C@@H]2C)n1 (2.5 µM)
inactive: IRAK3 = 0 | JAK1 = 0 | LCK 0 | LIMK1 = 0 | LIMK2 = 0 | LMTK2 = 0 | LYN 0 | MAP2K1 = 0 | MAP2K2 = 0 | MAP4K2 = 0 | MAPK1 = 0 | MAPK4 = 0 | MAPKAPK2 = 0 | MKNK1 = 0 | NTRK2 = 0 | NTRK3 = 0 | PAK4 = 0 | PBK 0 | PDGFRB 0 | PDK1 = 0

C=CC(=O)Nc1cccc(-c2cccc3cnc(Nc4ccc(N5CCN(CCO)CC5)c(F)c4F)nc23)c1 [Olafertinib] (2.5 µM)
inactive: IRAK3 = 0 | JAK1 = 0 | LCK 0 | LIMK1 = 0 | LIMK2 = 0 | LMTK2 = 0 | LYN 0 | MAP2K1 = 0 | MAP2K2 = 0 | MAP4K2 = 0 | MAPK1 = 0 | MAPK4 = 0 | MAPKAPK2 = 0 | MKNK1 = 0 | NTRK2 = 0 | NTRK3 = 0 | PAK4 = 0 | PBK 0 | PDGFRB 0 | PDK1 = 0

O=C(N[C@@H](C1CC1)C(F)(F)F)c1cc(-c2cnn3cc(-c4ccc(F)cc4)cnc23)cs1 (10 µM)
inactive: IRAK3 = 0 | JAK1 = 0 | LCK 0 | LIMK1 = 0 | LIMK2 = 0 | LMTK2 = 0 | LYN 0 | MAP2K1 = 0 | MAP2K2 = 0 | MAP4K2 = 0 | MAPK1 = 0 | MAPK4 = 0 | MAPKAPK2 = 0 | MKNK1 = 0 | NTRK2 = 0 | NTRK3 = 0 | PAK4 = 0 | PBK 0 | PDGFRB 0 | PDK1 = 0

C[C@@H]1O[C@@H](O[C@@H]2[C@@H](O)[C@H](OCCc3ccc(O)c(O)c3)O[C@H](CO)[C@H]2OC(=O)/C=C/c2ccc(O)c(O)c2)[C@H](O)[C@H](O)[C@H]1O [Verbascoside] (10 µM)
inactive: IRAK3 = 0 | JAK1 = 0 | LCK 0 | LIMK1 = 0 | LIMK2 = 0 | LMTK2 = 0 | LYN 0 | MAP2K1 = 0 | MAP2K2 = 0 | MAP4K2 = 0 | MAPK1 = 0 | MAPK4 = 0 | MAPKAPK2 = 0 | MKNK1 = 0 | NTRK2 = 0 | NTRK3 = 0 | PAK4 = 0 | PBK 0 | PDGFRB 0 | PDK1 = 0

C=CC(=O)N1CCC[C@H](n2c(=O)n(-c3ccc(Oc4ccccc4)cc3)c3c(N)ncnc32)C1 [ONO-4059 (analog)] (10 µM)
inactive: IRAK3 = 0 | JAK1 = 0 | LCK 0 | LIMK1 = 0 | LIMK2 = 0 | LMTK2 = 0 | LYN 0 | MAP2K1 = 0 | MAP2K2 = 0 | MAP4K2 = 0 | MAPK1 = 0 | MAPK4 = 0 | MAPKAPK2 = 0 | MKNK1 = 0 | NTRK2 = 0 | NTRK3 = 0 | PAK4 = 0 | PBK 0 | PDGFRB 0 | PDK1 = 0

C=CC(=O)N1C(=O)CC(c2ccc(F)cc2)Sc2ccccc21 (stereo not drawn) [GSK-3β inhibitor 3] (10 µM)
inactive: IRAK3 = 0 | JAK1 = 0 | LCK 0 | LIMK1 = 0 | LIMK2 = 0 | LMTK2 = 0 | LYN 0 | MAP2K1 = 0 | MAP2K2 = 0 | MAP4K2 = 0 | MAPK1 = 0 | MAPK4 = 0 | MAPKAPK2 = 0 | MKNK1 = 0 | NTRK2 = 0 | NTRK3 = 0 | PAK4 = 0 | PBK 0 | PDGFRB 0 | PDK1 = 0

O=c1cc(N2CCOCC2)nc2c3ccccc3ccn12 [Compound 401] (10 µM)
inactive: IRAK3 = 0 | JAK1 = 0 | LCK 0 | LIMK1 = 0 | LIMK2 = 0 | LMTK2 = 0 | LYN 0 | MAP2K1 = 0 | MAP2K2 = 0 | MAP4K2 = 0 | MAPK1 = 0 | MAPK4 = 0 | MAPKAPK2 = 0 | MKNK1 = 0 | NTRK2 = 0 | NTRK3 = 0 | PAK4 = 0 | PBK 0 | PDGFRB 0 | PDK1 = 0

Cc1ccc2c(Nc3cccc(Cl)c3F)nccc2c1NC(=O)c1csc2c(N)ncnc12 [Belvarafenib] (10 µM)
inactive: IRAK3 = 0 | JAK1 = 0 | LCK 0 | LIMK1 = 0 | LIMK2 = 0 | LMTK2 = 0 | LYN 0 | MAP2K1 = 0 | MAP2K2 = 0 | MAP4K2 = 0 | MAPK1 = 0 | MAPK4 = 0 | MAPKAPK2 = 0 | MKNK1 = 0 | NTRK2 = 0 | NTRK3 = 0 | PAK4 = 0 | PBK 0 | PDGFRB 0 | PDK1 = 0

O=C1O[C@H]([C@@H](O)CO)C(O)=C1OP(=O)(O)O [2-Phospho-L-ascorbic acid (trisodium)] (10 µM)
inactive: IRAK3 = 0 | JAK1 = 0 | LCK 0 | LIMK1 = 0 | LIMK2 = 0 | LMTK2 = 0 | LYN 0 | MAP2K1 = 0 | MAP2K2 = 0 | MAP4K2 = 0 | MAPK1 = 0 | MAPK4 = 0 | MAPKAPK2 = 0 | MKNK1 = 0 | NTRK2 = 0 | NTRK3 = 0 | PAK4 = 0 | PBK 0 | PDGFRB 0 | PDK1 = 0

Source: the supplement of paper PMC12823440, “Inhibitors supercharge kinase turnover through native proteolytic circuits” (Nature, 2025)
